Assay results taken from patent US8435549B2, “Halogen alkoxy spirocyclic tetramic and tetronic acid derivatives” (Bayer Cropscience AG, priority 2007, dated 2013).
Some results were stated once for a whole list of compounds, not compound by compound.

Legend:
Type in all cases: in vivo
Lolium multiflorum [1] = experiment: Herbicidal pre-emergence action; conditions: 320 g/ha of a.i., 3 weeks
Setaria viridis [2] = experiment: Herbicidal pre-emergence action; conditions: 320 g/ha of a.i., 3 weeks
Echinocloa crus-galli = experiment: Herbicidal post-emergence action; conditions: 80 g/ha, about 3 weeks
Lolium multiflorum [3] = experiment: Herbicidal post-emergence action; conditions: 80 g/ha, about 3 weeks
Setaria viridis [4] = experiment: Herbicidal post-emergence action; conditions: 80 g/ha, about 3 weeks

CCc1cc(C)cc(Br)c1C1=C(O)C2(CCC(OCC(F)(F)F)CC2)NC1=O (mixture of isomers) [Example I-1-a-2]
≥ 80%: pre-emergence action (herbicidal activity in percent) (Lolium multiflorum [1]) | pre-emergence action (herbicidal activity in percent) (Setaria viridis [2]) | post-emergence action (herbicidal activity in percent) (Echinocloa crus-galli) | post-emergence action (herbicidal activity in percent) (Lolium multiflorum [3]) | post-emergence action (herbicidal activity in percent) (Setaria viridis [4])

CCc1cc(Cl)cc(OC)c1C1=C(O)C2(CCC(OCC(F)(F)F)CC2)NC1=O (mixture of isomers) [Example I-1-a-4]
≥ 80%: pre-emergence action (herbicidal activity in percent) (Lolium multiflorum [1]) | pre-emergence action (herbicidal activity in percent) (Setaria viridis [2]) | post-emergence action (herbicidal activity in percent) (Echinocloa crus-galli) | post-emergence action (herbicidal activity in percent) (Lolium multiflorum [3]) | post-emergence action (herbicidal activity in percent) (Setaria viridis [4])

Cc1cc(C)c(C2=C(O)C3(CCC(OCC(F)(F)F)CC3)NC2=O)c(C)c1 (mixture of isomers) [Example I-1-a-5]
≥ 80%: pre-emergence action (herbicidal activity in percent) (Lolium multiflorum [1]) | pre-emergence action (herbicidal activity in percent) (Setaria viridis [2]) | post-emergence action (herbicidal activity in percent) (Echinocloa crus-galli) | post-emergence action (herbicidal activity in percent) (Lolium multiflorum [3]) | post-emergence action (herbicidal activity in percent) (Setaria viridis [4])

Cc1cc(Cl)ccc1C1=C(O)C2(CCC(OCC(F)(F)F)CC2)NC1=O (mixture of isomers) [Example I-1-a-8]
≥ 80%: pre-emergence action (herbicidal activity in percent) (Lolium multiflorum [1]) | pre-emergence action (herbicidal activity in percent) (Setaria viridis [2])

Cc1cc(Br)cc(C)c1C1=C(O)C2(CCC(OCC(F)(F)F)CC2)NC1=O (single isomer, unassigned) [Example I-1-a-9]
≥ 80%: pre-emergence action (herbicidal activity in percent) (Lolium multiflorum [1]) | pre-emergence action (herbicidal activity in percent) (Setaria viridis [2]) | post-emergence action (herbicidal activity in percent) (Echinocloa crus-galli) | post-emergence action (herbicidal activity in percent) (Lolium multiflorum [3]) | post-emergence action (herbicidal activity in percent) (Setaria viridis [4])

CCc1cc(C)cc(CC)c1C1=C(O)C2(CCC(OCC(F)(F)F)CC2)NC1=O (single isomer, unassigned) [Example I-1-a-12]
≥ 80%: pre-emergence action (herbicidal activity in percent) (Lolium multiflorum [1]) | pre-emergence action (herbicidal activity in percent) (Setaria viridis [2]) | post-emergence action (herbicidal activity in percent) (Echinocloa crus-galli) | post-emergence action (herbicidal activity in percent) (Lolium multiflorum [3]) | post-emergence action (herbicidal activity in percent) (Setaria viridis [4])

CCc1cc(Cl)cc(OC)c1C1=C(OC(C)=O)[C@]2(CC[C@H](OCC(F)(F)F)CC2)NC1=O [Example I-1-b-3]
≥ 80%: pre-emergence action (herbicidal activity in percent) (Lolium multiflorum [1]) | pre-emergence action (herbicidal activity in percent) (Setaria viridis [2]) | post-emergence action (herbicidal activity in percent) (Echinocloa crus-galli) | post-emergence action (herbicidal activity in percent) (Lolium multiflorum [3]) | post-emergence action (herbicidal activity in percent) (Setaria viridis [4])

COC(=O)OC1=C(c2c(C)ccc(-c3ccc(F)cc3)c2C)C(=O)N[C@]12CC[C@@H](OCC(F)(F)F)CC2 [Example I-1-c-2]
≥ 80%: pre-emergence action (herbicidal activity in percent) (Lolium multiflorum [1]) | pre-emergence action (herbicidal activity in percent) (Setaria viridis [2])

CCOC(=O)OC1=C(c2c(Br)cc(C)cc2CC)C(=O)N[C@]12CC[C@@H](OCC(F)(F)F)CC2 [Example I-1-c-3]
≥ 80%: pre-emergence action (herbicidal activity in percent) (Lolium multiflorum [1]) | pre-emergence action (herbicidal activity in percent) (Setaria viridis [2])
